Experimental data published in paper PMC7534258, “Novel temporin L antimicrobial peptides: promoting self-assembling by lipidic tags to tackle superbugs” (Journal of Enzyme Inhibition and Medicinal Chemistry, 2020).

Experiments:
[1] = Thioflavin T peptide aggregation in LUVs; details: peptide 5–50 µM
CD spectroscopy in SUVs [2] = details: 8 µM peptide, SUVs DOPG/CL, phosphate buffer 5 mM
CD spectroscopy in SUVs [3] = details: 8 µM peptide, SUVs DOPG/DOPE/CL, phosphate buffer 5 mM
[4] = Membrane fluidity, Laurdan generalised polarisation; details: Gram negative mimicking membranes, 25 °C

SMILES	ThT aggregation in membrane (in words) [1]	θ222/θ208 Gram-positive mimicking membranes (CD spectroscopy in SUVs [2])	θ222/θ208 Gram-negative mimicking membranes (CD spectroscopy in SUVs [3])	generalised polarisation (GP) LUVs + 5 µM Compound [4]	generalised polarisation (GP) LUVs + 30 µM Compound [4]
CC[C@H](C)[C@H](NC(=O)[C@H](CCCNC(=N)N)NC(=O)[C@@H](CCCCN)NC(=O)[C@@H](CC(C)C)NC(=O)[C@H](Cc1ccccc1)NC(=O)[C@H](CCCCN)NC(=O)[C@H](CO)NC(=O)[C@H](Cc1ccccc1)NC(=O)[C@H](Cc1c[nH]c2ccccc12)NC(=O)[C@@H]1CCCN1C(=O)[C@@H](NC(=O)[C@@H](N)Cc1ccccc1)C(C)C)C(=O)N[C@@H](CC(C)C)C(N)=O [Compound 1B, H-Phe-Val-Pro-Trp-Phe-Ser-Lys-Phe-DLeu-DLys-Arg-Ile-Leu-NH2] (H-FVPWFSKF[dL][dK]RIL-NH2)	drastic increase of fluorescence	2.0	1.3	0.09	0.11
CCCCC(=O)N[C@@H](Cc1ccccc1)C(=O)N[C@H](C(=O)N1CCC[C@H]1C(=O)N[C@@H](Cc1c[nH]c2ccccc12)C(=O)N[C@@H](Cc1ccccc1)C(=O)N[C@@H](CO)C(=O)N[C@@H](CCCCN)C(=O)N[C@@H](Cc1ccccc1)C(=O)N[C@H](CC(C)C)C(=O)N[C@H](CCCCN)C(=O)N[C@@H](CCCNC(=N)N)C(=O)N[C@H](C(=O)N[C@@H](CC(C)C)C(N)=O)[C@@H](C)CC)C(C)C [Compound 2B, CH3(CH2)3CO-Phe-Val-Pro-Trp-Phe-Ser-Lys-Phe-DLeu-DLys-Arg-Ile-Leu-NH2] (Pentanoyl-FVPWFSKF[dL][dK]RIL-NH2)	lower aggregation at low peptide/lipid ratio	2.3	2.6	−0.05	0.03
CCCCCCC(=O)N[C@@H](Cc1ccccc1)C(=O)N[C@H](C(=O)N1CCC[C@H]1C(=O)N[C@@H](Cc1c[nH]c2ccccc12)C(=O)N[C@@H](Cc1ccccc1)C(=O)N[C@@H](CO)C(=O)N[C@@H](CCCCN)C(=O)N[C@@H](Cc1ccccc1)C(=O)N[C@H](CC(C)C)C(=O)N[C@H](CCCCN)C(=O)N[C@@H](CCCNC(=N)N)C(=O)N[C@H](C(=O)N[C@@H](CC(C)C)C(N)=O)[C@@H](C)CC)C(C)C [Compound 3B, CH3(CH2)5CO-Phe-Val-Pro-Trp-Phe-Ser-Lys-Phe-DLeu-DLys-Arg-Ile-Leu-NH2] (Heptanoyl-FVPWFSKF[dL][dK]RIL-NH2)	lower aggregation at low peptide/lipid ratio	3.1	10.3	−0.07	0.07

Where a SMILES comes first, the peptide text is derived from it. [ ]: non-standard residue; d: D form. The star is where a group is joined. Heptanoyl = CCCCCCC(=O)*; Pentanoyl = CCCCC(=O)*
